Measured values from paper PMC8333275.
No constants are given. Whether binding was seen depends on the method and setting. Binding seen in cells or lysates may run through a third protein. Some entries that bind do so weakly or less than the wild type. Tags and fused reporters may be left off the sequences shown.

Target: T1, Myc-tagged GRXCR2 (UniProt Q3TYR5)
T1 sequence: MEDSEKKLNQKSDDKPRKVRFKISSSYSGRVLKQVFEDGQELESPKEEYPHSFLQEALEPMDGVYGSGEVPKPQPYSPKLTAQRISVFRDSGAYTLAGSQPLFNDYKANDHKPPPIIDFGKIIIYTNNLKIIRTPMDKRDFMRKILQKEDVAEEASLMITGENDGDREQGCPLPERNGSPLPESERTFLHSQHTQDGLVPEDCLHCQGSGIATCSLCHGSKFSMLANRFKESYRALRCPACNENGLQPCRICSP
Assay: co-IP; extracts of HEK293 cells transfected with GRXCR1-GFP and Myc-GRXCR2; immunoprecipitation with Myc antibody, western blot

B1: GFP-tagged GRXCR1 (protein, UniProt Q50H32 1-290)
chain: MLRRETKPESDRPRKVRFRIASSHSGRVLKEVYEDGQAPGSLDSECASICAIDGLSDSEGQQNGHIGSEDNEQEKDQDNLLVLARTASEKAFGTRRVNILSKNGTVRGVKYKVSAGQALFNNLTKVLQQPSADLEFDRVVIYTTCLRVVRTTFERCELVRKIFQNHRVKFEEKNIALNGDYGKELDERCRRVSEAPSLPVVFIDGHYLGGAEKILSMNESGELQDLLTKIERVQHPHECPSCGGFGFLPCSVCHGSKMSVFRNCFTDAFKALKCTACNENGLQRCKNCTC
  binding: binds
